{
  "sequences": {"note": "Chains of the proteins cited; added tags and fusions are not shown. Lines headed by an entry give the natural chain unless they say otherwise; changes in a name come on top.", "UniProt Q9Y603": "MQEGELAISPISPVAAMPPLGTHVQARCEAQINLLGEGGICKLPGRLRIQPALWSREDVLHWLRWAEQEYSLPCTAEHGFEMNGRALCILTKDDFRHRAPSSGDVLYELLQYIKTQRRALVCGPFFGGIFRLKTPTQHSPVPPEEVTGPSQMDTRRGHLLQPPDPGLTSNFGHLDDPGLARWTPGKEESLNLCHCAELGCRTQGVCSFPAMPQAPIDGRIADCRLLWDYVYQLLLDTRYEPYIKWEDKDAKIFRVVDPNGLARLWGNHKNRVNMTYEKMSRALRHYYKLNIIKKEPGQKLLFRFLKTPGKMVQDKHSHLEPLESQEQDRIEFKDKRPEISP", "UniProt P41212": "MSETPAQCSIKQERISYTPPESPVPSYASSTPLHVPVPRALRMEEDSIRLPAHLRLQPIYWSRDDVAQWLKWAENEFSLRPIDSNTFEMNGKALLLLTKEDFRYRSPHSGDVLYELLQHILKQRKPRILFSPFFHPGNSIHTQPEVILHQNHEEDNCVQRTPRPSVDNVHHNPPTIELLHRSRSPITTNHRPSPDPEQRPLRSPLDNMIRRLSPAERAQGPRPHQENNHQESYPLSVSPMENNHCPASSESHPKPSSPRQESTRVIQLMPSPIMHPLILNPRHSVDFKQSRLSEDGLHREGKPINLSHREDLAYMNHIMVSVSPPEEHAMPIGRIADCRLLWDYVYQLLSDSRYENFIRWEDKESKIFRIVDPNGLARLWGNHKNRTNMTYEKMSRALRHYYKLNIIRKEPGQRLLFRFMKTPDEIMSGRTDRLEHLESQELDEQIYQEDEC"},
  "source": "paper PMC7862700",
  "key": {"ETV7": {"biological_target": "ETV7 (UniProt Q9Y603)", "experiment": "DAPPL (digital affinity profiling via proximity ligation, sequencing)", "details": "10 mM Tris-HCl pH 7.5, 50 mM NaCl, 1 mM DTT, 4% glycerol, room temperature, 30 min; GST-TFs on glutathione beads, 16-mer random dsDNA library, 0.1% …; high values mean tight binding; double strand, one strand shown; scale: fold enrichment (6-mer frequency, TF over GST control)"}, "ETV6": {"biological_target": "ETV6 (UniProt P41212)", "experiment": "DAPPL (digital affinity profiling via proximity ligation, sequencing)", "details": "10 mM Tris-HCl pH 7.5, 50 mM NaCl, 1 mM DTT, 4% glycerol, room temperature, 30 min; GST-TFs on glutathione beads, 16-mer random dsDNA library, 0.1% …; high values mean tight binding; double strand, one strand shown; scale: fold enrichment (6-mer frequency, TF over GST control)"}},
  "note": "The entries are a selection whose mix differs from that of the whole data set. At the low end of the ranking, values are background and their order means little.",
  "data": [
    {"sequence": "ACATTC", "values": [
      {"measurement": "binding signal", "setting": "ETV7", "result": 1.31},
      {"measurement": "binding signal", "setting": "ETV6", "result": 1.4}
    ]},
    {"sequence": "TAGCCC", "values": [
      {"measurement": "binding signal", "setting": "ETV7", "result": 1.05},
      {"measurement": "binding signal", "setting": "ETV6", "result": 1.04}
    ]},
    {"sequence": "CACAAT", "values": [
      {"measurement": "binding signal", "setting": "ETV7", "result": 0.967},
      {"measurement": "binding signal", "setting": "ETV6", "result": 1.09}
    ]},
    {"sequence": "TACCAA", "values": [
      {"measurement": "binding signal", "setting": "ETV7", "result": 1.13},
      {"measurement": "binding signal", "setting": "ETV6", "result": 1.17}
    ]},
    {"sequence": "TATTGG", "values": [
      {"measurement": "binding signal", "setting": "ETV7", "result": 1.19},
      {"measurement": "binding signal", "setting": "ETV6", "result": 1.21}
    ]},
    {"sequence": "TACATG", "values": [
      {"measurement": "binding signal", "setting": "ETV7", "result": 1.25},
      {"measurement": "binding signal", "setting": "ETV6", "result": 1.24}
    ]},
    {"sequence": "CCTACT", "values": [
      {"measurement": "binding signal", "setting": "ETV7", "result": 1.35}
    ]},
    {"sequence": "AACAAA", "values": [
      {"measurement": "binding signal", "setting": "ETV7", "result": 1.13},
      {"measurement": "binding signal", "setting": "ETV6", "result": 1.18}
    ]},
    {"sequence": "ATGTCA", "values": [
      {"measurement": "binding signal", "setting": "ETV7", "result": 1.02}
    ]},
    {"sequence": "CCTAGA", "values": [
      {"measurement": "binding signal", "setting": "ETV7", "result": 0.961},
      {"measurement": "binding signal", "setting": "ETV6", "result": 0.975}
    ]},
    {"sequence": "TGCGTA", "values": [
      {"measurement": "binding signal", "setting": "ETV7", "result": 1.01},
      {"measurement": "binding signal", "setting": "ETV6", "result": 1.11}
    ]},
    {"sequence": "GCCTCA", "values": [
      {"measurement": "binding signal", "setting": "ETV7", "result": 1.24},
      {"measurement": "binding signal", "setting": "ETV6", "result": 1.18}
    ]},
    {"sequence": "CCCGTT", "values": [
      {"measurement": "binding signal", "setting": "ETV7", "result": 1.19},
      {"measurement": "binding signal", "setting": "ETV6", "result": 1.16}
    ]},
    {"sequence": "ATCTCG", "values": [
      {"measurement": "binding signal", "setting": "ETV7", "result": 1.38},
      {"measurement": "binding signal", "setting": "ETV6", "result": 1.3}
    ]},
    {"sequence": "ATTTTT", "values": [
      {"measurement": "binding signal", "setting": "ETV7", "result": 1.19},
      {"measurement": "binding signal", "setting": "ETV6", "result": 1.17}
    ]},
    {"sequence": "TACTTG", "values": [
      {"measurement": "binding signal", "setting": "ETV7", "result": 1.34},
      {"measurement": "binding signal", "setting": "ETV6", "result": 1.24}
    ]},
    {"sequence": "GCATCC", "values": [
      {"measurement": "binding signal", "setting": "ETV7", "result": 1.43},
      {"measurement": "binding signal", "setting": "ETV6", "result": 1.57}
    ]},
    {"sequence": "TAGTAC", "values": [
      {"measurement": "binding signal", "setting": "ETV7", "result": 1.17}
    ]},
    {"sequence": "CTCTGG", "values": [
      {"measurement": "binding signal", "setting": "ETV7", "result": 1.33}
    ]},
    {"sequence": "CTGCTA", "values": [
      {"measurement": "binding signal", "setting": "ETV7", "result": 1.5},
      {"measurement": "binding signal", "setting": "ETV6", "result": 1.39}
    ]},
    {"sequence": "GGCCCC", "values": [
      {"measurement": "binding signal", "setting": "ETV7", "result": 0.986},
      {"measurement": "binding signal", "setting": "ETV6", "result": 0.912}
    ]},
    {"sequence": "AGCCCC", "values": [
      {"measurement": "binding signal", "setting": "ETV7", "result": 0.951},
      {"measurement": "binding signal", "setting": "ETV6", "result": 1.12}
    ]},
    {"sequence": "AAGCAG", "values": [
      {"measurement": "binding signal", "setting": "ETV7", "result": 1.14}
    ]},
    {"sequence": "ACGCCC", "values": [
      {"measurement": "binding signal", "setting": "ETV7", "result": 1.03},
      {"measurement": "binding signal", "setting": "ETV6", "result": 1.13}
    ]},
    {"sequence": "GACCTC", "values": [
      {"measurement": "binding signal", "setting": "ETV7", "result": 1.33}
    ]},
    {"sequence": "ACGATC", "values": [
      {"measurement": "binding signal", "setting": "ETV7", "result": 1},
      {"measurement": "binding signal", "setting": "ETV6", "result": 0.995}
    ]},
    {"sequence": "TTAATT", "values": [
      {"measurement": "binding signal", "setting": "ETV7", "result": 1.55},
      {"measurement": "binding signal", "setting": "ETV6", "result": 1.4}
    ]},
    {"sequence": "ATGATA", "values": [
      {"measurement": "binding signal", "setting": "ETV7", "result": 1.16}
    ]},
    {"sequence": "TATGCG", "values": [
      {"measurement": "binding signal", "setting": "ETV7", "result": 1.51},
      {"measurement": "binding signal", "setting": "ETV6", "result": 1.22}
    ]},
    {"sequence": "ACCCTA", "values": [
      {"measurement": "binding signal", "setting": "ETV7", "result": 1.27}
    ]},
    {"sequence": "CAATCC", "values": [
      {"measurement": "binding signal", "setting": "ETV7", "result": 1.16},
      {"measurement": "binding signal", "setting": "ETV6", "result": 1.22}
    ]},
    {"sequence": "GTAAAA", "values": [
      {"measurement": "binding signal", "setting": "ETV7", "result": 1.18}
    ]},
    {"sequence": "CGCGAC", "values": [
      {"measurement": "binding signal", "setting": "ETV7", "result": 0.946},
      {"measurement": "binding signal", "setting": "ETV6", "result": 1.04}
    ]},
    {"sequence": "TCTCAA", "values": [
      {"measurement": "binding signal", "setting": "ETV6", "result": 1.27}
    ]},
    {"sequence": "TTAAAA", "values": [
      {"measurement": "binding signal", "setting": "ETV6", "result": 1.19}
    ]},
    {"sequence": "TCGCCT", "values": [
      {"measurement": "binding signal", "setting": "ETV6", "result": 1.32}
    ]},
    {"sequence": "ATCATG", "values": [
      {"measurement": "binding signal", "setting": "ETV6", "result": 1.08}
    ]},
    {"sequence": "ATCAAT", "values": [
      {"measurement": "binding signal", "setting": "ETV6", "result": 1.07}
    ]},
    {"sequence": "ATTGAT", "values": [
      {"measurement": "binding signal", "setting": "ETV6", "result": 1.24}
    ]},
    {"sequence": "ATATAC", "values": [
      {"measurement": "binding signal", "setting": "ETV6", "result": 1.19}
    ]},
    {"sequence": "AATACA", "values": [
      {"measurement": "binding signal", "setting": "ETV6", "result": 1.34}
    ]},
    {"sequence": "ATGTTC", "values": [
      {"measurement": "binding signal", "setting": "ETV6", "result": 1.18}
    ]},
    {"sequence": "GTCCTA", "values": [
      {"measurement": "binding signal", "setting": "ETV6", "result": 1.13}
    ]},
    {"sequence": "AAATTA", "values": [
      {"measurement": "binding signal", "setting": "ETV6", "result": 1.25}
    ]},
    {"sequence": "CACTGG", "values": [
      {"measurement": "binding signal", "setting": "ETV6", "result": 1.04}
    ]},
    {"sequence": "AATTTA", "values": [
      {"measurement": "binding signal", "setting": "ETV6", "result": 1.33}
    ]},
    {"sequence": "CGATTG", "values": [
      {"measurement": "binding signal", "setting": "ETV6", "result": 1.22}
    ]},
    {"sequence": "TGGTTA", "values": [
      {"measurement": "binding signal", "setting": "ETV6", "result": 1.1}
    ]},
    {"sequence": "AGCTAA", "values": [
      {"measurement": "binding signal", "setting": "ETV6", "result": 0.986}
    ]},
    {"sequence": "CTATAA", "values": [
      {"measurement": "binding signal", "setting": "ETV6", "result": 1.16}
    ]},
    {"sequence": "CCTATC", "values": [
      {"measurement": "binding signal", "setting": "ETV6", "result": 1.12}
    ]}
  ]
}
